Laboratory results reported in patent US20240158370A1, “CK1 alpha AND DUAL CK1 alpha / GSPT1 DEGRADING COMPOUNDS” (Innovo Therapeutics, Inc., priority 2022, published 2024).

Chains of the proteins cited; added tags and fusions are not shown.
UniProt P48729, whole entry: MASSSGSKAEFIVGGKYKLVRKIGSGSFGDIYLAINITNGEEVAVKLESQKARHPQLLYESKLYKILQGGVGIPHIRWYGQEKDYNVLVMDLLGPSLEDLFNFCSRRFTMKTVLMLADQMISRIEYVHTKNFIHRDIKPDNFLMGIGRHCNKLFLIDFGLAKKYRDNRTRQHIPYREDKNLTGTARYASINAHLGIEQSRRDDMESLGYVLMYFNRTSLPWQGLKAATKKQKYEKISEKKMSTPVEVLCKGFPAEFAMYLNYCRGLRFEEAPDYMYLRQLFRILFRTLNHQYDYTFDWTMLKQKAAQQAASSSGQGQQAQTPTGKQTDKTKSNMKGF
UniProt Q96SW2, whole entry: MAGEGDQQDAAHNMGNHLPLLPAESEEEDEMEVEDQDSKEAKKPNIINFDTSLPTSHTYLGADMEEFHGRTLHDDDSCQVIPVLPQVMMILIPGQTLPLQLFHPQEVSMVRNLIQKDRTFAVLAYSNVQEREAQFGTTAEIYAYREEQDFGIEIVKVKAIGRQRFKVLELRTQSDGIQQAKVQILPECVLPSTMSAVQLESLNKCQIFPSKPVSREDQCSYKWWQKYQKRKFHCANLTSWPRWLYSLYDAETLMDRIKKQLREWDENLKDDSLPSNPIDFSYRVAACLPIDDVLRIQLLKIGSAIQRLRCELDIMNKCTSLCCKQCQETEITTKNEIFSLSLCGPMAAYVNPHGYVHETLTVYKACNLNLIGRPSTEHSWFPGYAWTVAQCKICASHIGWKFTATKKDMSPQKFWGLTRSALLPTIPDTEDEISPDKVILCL
UniProt P15170, whole entry: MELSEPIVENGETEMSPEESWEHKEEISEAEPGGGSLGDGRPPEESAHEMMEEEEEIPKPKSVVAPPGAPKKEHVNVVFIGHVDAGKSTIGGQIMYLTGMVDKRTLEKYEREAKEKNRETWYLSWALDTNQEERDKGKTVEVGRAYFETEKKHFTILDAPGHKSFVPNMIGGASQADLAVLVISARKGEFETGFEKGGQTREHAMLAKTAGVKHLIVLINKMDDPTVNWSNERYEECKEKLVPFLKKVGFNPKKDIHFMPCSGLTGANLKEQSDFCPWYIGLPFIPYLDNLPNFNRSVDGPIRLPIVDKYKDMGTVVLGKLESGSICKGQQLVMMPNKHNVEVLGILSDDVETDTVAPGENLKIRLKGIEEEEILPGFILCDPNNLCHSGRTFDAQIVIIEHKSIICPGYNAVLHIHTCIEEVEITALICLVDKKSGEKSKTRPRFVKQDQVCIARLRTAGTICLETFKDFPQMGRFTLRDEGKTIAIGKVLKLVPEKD
UniProt Q16531, whole entry partner: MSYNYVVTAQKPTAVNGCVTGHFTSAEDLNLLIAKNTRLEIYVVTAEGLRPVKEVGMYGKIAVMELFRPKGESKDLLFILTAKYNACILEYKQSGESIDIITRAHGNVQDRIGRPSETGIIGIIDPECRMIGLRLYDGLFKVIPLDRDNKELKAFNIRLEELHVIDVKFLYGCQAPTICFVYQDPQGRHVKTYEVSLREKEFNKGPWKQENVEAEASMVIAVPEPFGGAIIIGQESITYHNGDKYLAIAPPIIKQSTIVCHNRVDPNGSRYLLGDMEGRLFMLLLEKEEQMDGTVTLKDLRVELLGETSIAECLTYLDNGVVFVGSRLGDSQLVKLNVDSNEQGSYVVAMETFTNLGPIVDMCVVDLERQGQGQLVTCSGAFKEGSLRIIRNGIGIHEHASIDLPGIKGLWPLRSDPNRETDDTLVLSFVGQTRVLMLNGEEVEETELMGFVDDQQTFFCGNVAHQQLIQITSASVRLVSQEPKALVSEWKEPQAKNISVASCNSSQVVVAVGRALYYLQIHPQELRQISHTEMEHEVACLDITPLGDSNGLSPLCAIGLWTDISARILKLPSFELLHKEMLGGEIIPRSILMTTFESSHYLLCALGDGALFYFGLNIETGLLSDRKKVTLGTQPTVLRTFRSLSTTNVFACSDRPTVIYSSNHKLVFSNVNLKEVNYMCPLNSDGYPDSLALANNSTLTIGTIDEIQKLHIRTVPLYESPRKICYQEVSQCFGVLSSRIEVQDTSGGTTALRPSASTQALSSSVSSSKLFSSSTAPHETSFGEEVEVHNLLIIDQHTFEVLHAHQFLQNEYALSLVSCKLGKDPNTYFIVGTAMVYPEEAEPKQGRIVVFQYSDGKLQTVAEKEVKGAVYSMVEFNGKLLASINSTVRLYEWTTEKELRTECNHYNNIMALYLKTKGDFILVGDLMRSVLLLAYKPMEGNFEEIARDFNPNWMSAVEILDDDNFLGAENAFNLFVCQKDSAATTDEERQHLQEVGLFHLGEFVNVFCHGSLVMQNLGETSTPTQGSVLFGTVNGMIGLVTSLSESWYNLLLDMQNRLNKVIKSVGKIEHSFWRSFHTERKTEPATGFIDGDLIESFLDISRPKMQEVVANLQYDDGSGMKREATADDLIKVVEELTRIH

Legend:
CK1α = CK1α (Homo sapiens, UniProt P48729+Q96SW2); experiment: HiBiT degradation assay, CK1α, Procedure A
GSPT1 = GSPT1 (Homo sapiens, UniProt P15170+Q96SW2); experiment: HiBiT degradation assay, GSPT1, Procedure A

DC50 (CK1α; read-out: CK1α DC50, six hours): < 25 nM
CK1α Ymin (CK1α; six hours): C (C = 0-10% remaining)
DC50 (GSPT1; read-out: GSPT1 DC50, six hours): < 25 nM
GSPT1 Ymin (GSPT1; six hours): F (F = >75-100% remaining)
Compound: Cc1ccc(-c2c(-c3ccc4c(c3)CN(C3CCC(=O)NC3=O)C4=O)ncn2C)o1 (stereo not shown)

The match of structure and compound is tentative.
